The text below walks through data of US9333193B2, “Compositions and methods for treating tuberculosis” (priority 2010, dated 2016).

Molecules are shown by their SMILES.

The data set has as its system Mycobacterium smegmatis mc2155. Briefly: Anti-mycobacterial activity of nitazoxanides, MIC in Middlebrook 7H9. It is filed as cell-based. The conditions noted are these: none of the other mycobacterial strains decolorized the compounds. The procedure:
(1) Strains: Mycobacterium smegmatis mc2155, Mycobacterium chelonae EOP-1, Mycobacterium marinum ATCC 927, Mycobacterium avium Va14(T), and Mycobacterium abscessus AAy-P-1).
(2) Medium: Middlebrook 7H9 containing 0.5% (vol/vol) glycerol and 10% (vol/vol) oleic acid-albumin.
(3) Incubation Temperature: 37° C., except M. marinum 30° C.
(4) Nitazoxanides: Precipitates were present in wells of nitazoxanides with high concentrations (250-31 μg/mL) except for 162080, 162088, 16b2026, and 16b2031.
(5) Decolorization: Almost all the yellow nitazoxanides, namely 16b1090, 16b1092 and 16b1093, 16b1094, 16b2023, 16b2025, and 16b2026 were decolorized by M. smegmatis strain mc2155. None of the other mycobacterial strains decolorized the compounds. Note that the compound numbers are also referred to herein with the prefix VPC.
The strains used were Mycobacterium smegmatis mc2155, Mycobacterium chelonae EOP-1, Mycobacterium marinum ATCC 927, Mycobacterium avium Va14(T), and Mycobacterium abscessus AAy-P-1. The medium use was Middlebrook 7H9 containing 0.5% (vol/vol) glycerol and 10% (vol/vol) oleic acid-albumin. Incubation Temperature was 37° C., except for M. marinum at 30° C. For nitazoxanides, precipitates were present in wells of nitazoxanides with high concentrations (250-31 μg/mL) except for 162080, 162088, 16b2026, and 16b2031.
Decolorization: Almost all the yellow nitazoxanides, namely 16b1090, 16b1092 and 16b1093, 16b1094, 16b2023, 16b2025, and 16b2026 were decolorized by M. smegmatis strain mc2155. None of the other mycobacterial strains decolorized the compounds.
On to `O=C(Nc1sc([N+](=O)[O-])cc1[N+](=O)[O-])c1ccccc1` [VPC16b1090], for which the “Decolorization of the yellow compound by M. smegmatis strain mc2155” value (from here on “Decolorization of the yellow compound”) is recorded as “decolorized”. In the case of `O=C(Nc1sc([N+](=O)[O-])cc1[N+](=O)[O-])c1cccc(C(F)(F)F)c1` [VPC16b1092] it was “decolorized”.

As to `O=C(Nc1sc([N+](=O)[O-])cc1[N+](=O)[O-])c1cccs1` [VPC16b1093, N-(3,5-Dinitrothiophen-2-yl)thiophene-2-carboxamide], the “Decolorization of the yellow compound” value is given as “decolorized”.

With `O=C(Nc1sc([N+](=O)[O-])cc1[N+](=O)[O-])c1ccoc1` [VPC16b1094], the “Decolorization of the yellow compound” value is listed as “decolorized”.

For `O=C(Nc1sc([N+](=O)[O-])cc1[N+](=O)[O-])c1cc(C(F)(F)F)ccc1Cl` [VPC16b2026, 2-Chloro-N-(3,5-dinitrothiophen-2-yl)-5-(trifluoromethyl)benzamide], the “Decolorization of the yellow compound” value is reported as “decolorized”.
